Results are given in words; binding and its absence hold for the method and conditions named. In cells and extracts the contact can be indirect. Some entries that bind do so weakly or less than the wild type. Values belong to the substance of their own block, whether it stands above or below them.
Key:
HA-MAML1 = HA-MAML1 (UniProt Q92585); assay: co-IP; exogenous MAML1 and STAT3 in HEK293T cells; immunoprecipitation and western blot
[1] = target: MAML1 (endogenous) (human (endogenous in HepG2)) (UniProt Q92585); assay: co-IP; endogenous proteins; HepG2 lysate in IP lysis buffer, precleared with protein A-agarose, anti-STAT3 or anti-MAML1 antibody or rabbit IgG overnight at 4 °C, protein A-agarose, western blot
[2] = target: STAT3 (endogenous) (human (endogenous in HepG2)) (UniProt P40763); assay: co-IP; immunoprecipitation of the STAT3 complex, blot for p300 and acetyl-lysine; cells with MAML1 overexpression (Fig. 3G) or MAML1 knockdown (Fig. 3H); cell line not named for these panels

The chains behind the UniProt entries cited, without tags or fusion partners.
UniProt Q92585: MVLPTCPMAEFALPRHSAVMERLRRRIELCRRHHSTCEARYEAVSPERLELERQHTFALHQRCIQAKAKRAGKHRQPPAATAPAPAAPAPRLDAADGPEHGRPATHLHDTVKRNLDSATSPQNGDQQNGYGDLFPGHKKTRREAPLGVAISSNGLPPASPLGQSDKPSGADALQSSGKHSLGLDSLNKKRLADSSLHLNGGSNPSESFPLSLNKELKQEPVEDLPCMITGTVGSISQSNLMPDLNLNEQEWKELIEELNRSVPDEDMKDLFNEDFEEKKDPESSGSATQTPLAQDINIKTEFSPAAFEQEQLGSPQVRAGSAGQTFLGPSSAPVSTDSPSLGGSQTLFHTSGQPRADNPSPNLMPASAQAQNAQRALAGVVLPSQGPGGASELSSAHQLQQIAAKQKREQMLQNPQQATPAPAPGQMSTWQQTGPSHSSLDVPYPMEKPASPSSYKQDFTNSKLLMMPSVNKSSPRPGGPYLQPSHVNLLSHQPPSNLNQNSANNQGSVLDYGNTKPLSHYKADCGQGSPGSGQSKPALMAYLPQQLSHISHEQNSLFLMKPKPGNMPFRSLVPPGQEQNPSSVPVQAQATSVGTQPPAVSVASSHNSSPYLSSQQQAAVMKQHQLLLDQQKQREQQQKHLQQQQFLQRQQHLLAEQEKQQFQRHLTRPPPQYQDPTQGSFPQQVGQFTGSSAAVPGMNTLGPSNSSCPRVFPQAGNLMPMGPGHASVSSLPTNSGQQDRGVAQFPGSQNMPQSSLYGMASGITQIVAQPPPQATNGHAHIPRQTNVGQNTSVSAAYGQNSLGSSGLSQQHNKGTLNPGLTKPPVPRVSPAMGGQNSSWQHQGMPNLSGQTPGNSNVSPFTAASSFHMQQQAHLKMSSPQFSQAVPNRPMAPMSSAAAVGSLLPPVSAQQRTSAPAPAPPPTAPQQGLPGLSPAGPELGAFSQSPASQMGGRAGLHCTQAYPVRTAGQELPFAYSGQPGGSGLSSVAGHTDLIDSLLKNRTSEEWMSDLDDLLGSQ
UniProt P40763: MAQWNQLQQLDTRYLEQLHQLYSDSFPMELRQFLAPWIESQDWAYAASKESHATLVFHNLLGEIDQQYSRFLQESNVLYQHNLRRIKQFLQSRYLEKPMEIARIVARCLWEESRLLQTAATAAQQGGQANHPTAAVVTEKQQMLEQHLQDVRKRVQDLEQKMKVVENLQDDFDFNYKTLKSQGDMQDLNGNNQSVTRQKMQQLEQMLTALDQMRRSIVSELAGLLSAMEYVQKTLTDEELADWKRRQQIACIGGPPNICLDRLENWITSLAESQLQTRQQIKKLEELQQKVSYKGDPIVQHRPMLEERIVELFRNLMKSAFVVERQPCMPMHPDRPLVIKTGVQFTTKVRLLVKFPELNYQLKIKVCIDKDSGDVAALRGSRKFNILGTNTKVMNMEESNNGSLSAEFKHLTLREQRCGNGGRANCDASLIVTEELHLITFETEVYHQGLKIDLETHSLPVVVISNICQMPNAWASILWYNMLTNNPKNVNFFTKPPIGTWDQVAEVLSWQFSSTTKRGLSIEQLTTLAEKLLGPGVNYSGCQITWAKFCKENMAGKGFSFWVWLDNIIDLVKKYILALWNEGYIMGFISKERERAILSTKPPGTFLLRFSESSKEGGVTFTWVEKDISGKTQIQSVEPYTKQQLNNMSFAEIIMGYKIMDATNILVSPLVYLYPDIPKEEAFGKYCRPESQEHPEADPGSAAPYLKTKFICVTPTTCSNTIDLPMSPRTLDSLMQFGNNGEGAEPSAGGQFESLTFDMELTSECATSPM
UniProt Q09472: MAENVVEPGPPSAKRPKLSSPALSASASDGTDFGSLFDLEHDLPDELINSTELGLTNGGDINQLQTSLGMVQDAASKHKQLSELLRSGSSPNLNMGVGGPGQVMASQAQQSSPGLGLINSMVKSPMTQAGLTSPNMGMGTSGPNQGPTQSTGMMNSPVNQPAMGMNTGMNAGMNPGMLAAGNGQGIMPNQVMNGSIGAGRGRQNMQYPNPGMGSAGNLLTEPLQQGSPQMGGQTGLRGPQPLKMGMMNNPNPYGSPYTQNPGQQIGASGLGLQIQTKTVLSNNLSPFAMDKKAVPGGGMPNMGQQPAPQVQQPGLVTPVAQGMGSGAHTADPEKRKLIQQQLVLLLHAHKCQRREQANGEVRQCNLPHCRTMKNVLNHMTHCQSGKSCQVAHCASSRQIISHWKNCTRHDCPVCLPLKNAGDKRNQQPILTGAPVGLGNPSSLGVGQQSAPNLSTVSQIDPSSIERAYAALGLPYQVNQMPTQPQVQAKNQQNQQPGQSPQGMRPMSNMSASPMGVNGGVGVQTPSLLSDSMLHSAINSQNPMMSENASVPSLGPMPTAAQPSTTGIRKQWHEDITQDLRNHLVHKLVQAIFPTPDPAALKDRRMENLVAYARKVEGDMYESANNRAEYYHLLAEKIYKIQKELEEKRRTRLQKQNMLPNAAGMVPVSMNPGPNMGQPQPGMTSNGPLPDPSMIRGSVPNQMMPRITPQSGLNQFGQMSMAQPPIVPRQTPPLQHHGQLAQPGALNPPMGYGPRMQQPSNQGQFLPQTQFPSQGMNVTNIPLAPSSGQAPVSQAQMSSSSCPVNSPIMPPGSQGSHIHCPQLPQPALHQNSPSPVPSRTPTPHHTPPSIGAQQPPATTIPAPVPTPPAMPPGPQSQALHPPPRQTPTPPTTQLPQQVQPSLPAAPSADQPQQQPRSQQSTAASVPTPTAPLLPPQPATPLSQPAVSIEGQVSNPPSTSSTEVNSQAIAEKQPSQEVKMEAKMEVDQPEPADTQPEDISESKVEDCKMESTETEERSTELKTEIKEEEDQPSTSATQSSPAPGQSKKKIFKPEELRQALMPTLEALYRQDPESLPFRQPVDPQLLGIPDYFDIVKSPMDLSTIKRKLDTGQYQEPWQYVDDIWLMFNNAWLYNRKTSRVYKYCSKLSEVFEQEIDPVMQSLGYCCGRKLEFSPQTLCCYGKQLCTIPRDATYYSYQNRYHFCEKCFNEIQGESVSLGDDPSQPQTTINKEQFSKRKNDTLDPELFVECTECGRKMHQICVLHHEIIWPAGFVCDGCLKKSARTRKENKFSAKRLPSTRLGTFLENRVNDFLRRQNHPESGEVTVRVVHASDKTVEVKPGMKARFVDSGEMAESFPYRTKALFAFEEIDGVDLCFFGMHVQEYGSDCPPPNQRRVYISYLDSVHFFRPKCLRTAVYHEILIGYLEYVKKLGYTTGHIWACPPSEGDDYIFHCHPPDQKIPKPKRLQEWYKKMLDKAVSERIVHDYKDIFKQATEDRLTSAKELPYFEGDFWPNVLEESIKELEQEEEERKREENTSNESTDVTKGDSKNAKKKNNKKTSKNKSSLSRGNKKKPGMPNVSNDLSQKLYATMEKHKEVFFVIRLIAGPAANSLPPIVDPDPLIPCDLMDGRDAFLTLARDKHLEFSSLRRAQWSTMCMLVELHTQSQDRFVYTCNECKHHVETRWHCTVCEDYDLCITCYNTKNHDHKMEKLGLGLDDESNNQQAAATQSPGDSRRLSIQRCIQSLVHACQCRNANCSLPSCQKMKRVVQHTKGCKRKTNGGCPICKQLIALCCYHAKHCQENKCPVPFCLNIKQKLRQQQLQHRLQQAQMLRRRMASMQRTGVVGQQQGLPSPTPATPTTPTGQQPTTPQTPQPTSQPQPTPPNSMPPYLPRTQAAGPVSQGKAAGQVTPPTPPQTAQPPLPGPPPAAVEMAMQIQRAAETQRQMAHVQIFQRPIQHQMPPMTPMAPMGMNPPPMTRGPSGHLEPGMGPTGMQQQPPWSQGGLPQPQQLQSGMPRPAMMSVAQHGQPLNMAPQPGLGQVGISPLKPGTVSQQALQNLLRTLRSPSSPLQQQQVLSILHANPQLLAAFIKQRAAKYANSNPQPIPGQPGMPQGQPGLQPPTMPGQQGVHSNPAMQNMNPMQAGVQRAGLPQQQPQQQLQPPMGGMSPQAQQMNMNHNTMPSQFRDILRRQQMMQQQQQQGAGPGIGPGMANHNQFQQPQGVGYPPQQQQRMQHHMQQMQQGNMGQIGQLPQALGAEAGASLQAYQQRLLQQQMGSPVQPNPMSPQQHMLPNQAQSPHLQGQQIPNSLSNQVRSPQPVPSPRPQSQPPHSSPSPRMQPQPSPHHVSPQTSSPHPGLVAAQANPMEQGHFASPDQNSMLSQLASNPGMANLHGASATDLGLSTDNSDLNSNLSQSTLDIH

binding (HA-MAML1): binds
Substance: Flag-STAT3 (from UniProt P40763 1-770)

binding [1]: binds
Substance: STAT3 (endogenous) (from UniProt P40763 1-770)

binding [2]: binds
Substance: p300 (from UniProt Q09472 1-2414)
